In PMC5865676:
Read-outs that look alike come from different tables or passages of the source. These are yes or no findings as the source states them, for the method shown. In cells and extracts the contact can be indirect. These calls come from enrichment with a bait or labelling near it, and not all partners need be listed.

Amino acid sequences for entries named in this document (tags omitted).
UniProt P62136: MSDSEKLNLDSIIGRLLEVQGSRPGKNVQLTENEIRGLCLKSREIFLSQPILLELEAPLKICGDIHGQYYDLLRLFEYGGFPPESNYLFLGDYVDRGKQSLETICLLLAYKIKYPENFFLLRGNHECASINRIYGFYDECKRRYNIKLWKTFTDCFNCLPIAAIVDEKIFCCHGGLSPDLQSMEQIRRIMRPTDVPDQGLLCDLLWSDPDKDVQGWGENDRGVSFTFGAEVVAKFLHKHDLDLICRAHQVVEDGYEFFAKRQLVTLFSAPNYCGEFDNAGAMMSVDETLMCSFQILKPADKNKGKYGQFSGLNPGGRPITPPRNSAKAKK
UniProt P50990: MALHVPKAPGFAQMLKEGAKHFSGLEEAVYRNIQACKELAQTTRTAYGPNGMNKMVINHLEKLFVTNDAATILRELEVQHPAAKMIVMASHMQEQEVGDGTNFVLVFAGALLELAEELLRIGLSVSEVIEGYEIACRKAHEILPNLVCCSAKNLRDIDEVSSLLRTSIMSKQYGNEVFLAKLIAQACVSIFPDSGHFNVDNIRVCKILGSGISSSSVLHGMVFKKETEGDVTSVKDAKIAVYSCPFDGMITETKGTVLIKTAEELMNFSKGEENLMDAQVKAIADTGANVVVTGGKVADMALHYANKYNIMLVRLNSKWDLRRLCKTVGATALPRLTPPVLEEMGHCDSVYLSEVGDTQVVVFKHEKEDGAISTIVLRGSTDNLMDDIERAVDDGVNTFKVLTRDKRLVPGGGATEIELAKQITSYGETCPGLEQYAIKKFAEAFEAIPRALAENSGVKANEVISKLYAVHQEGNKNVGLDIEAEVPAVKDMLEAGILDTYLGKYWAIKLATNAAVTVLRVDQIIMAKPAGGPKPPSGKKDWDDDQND
UniProt P05198: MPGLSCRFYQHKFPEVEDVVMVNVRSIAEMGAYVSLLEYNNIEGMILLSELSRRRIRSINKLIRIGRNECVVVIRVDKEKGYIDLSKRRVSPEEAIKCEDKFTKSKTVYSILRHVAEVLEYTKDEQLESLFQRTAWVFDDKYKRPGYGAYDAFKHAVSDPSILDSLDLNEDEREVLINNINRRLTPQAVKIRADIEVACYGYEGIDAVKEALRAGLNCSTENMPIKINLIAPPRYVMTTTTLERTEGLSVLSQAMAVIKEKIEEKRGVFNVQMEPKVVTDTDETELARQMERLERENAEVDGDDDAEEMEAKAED
UniProt O00571: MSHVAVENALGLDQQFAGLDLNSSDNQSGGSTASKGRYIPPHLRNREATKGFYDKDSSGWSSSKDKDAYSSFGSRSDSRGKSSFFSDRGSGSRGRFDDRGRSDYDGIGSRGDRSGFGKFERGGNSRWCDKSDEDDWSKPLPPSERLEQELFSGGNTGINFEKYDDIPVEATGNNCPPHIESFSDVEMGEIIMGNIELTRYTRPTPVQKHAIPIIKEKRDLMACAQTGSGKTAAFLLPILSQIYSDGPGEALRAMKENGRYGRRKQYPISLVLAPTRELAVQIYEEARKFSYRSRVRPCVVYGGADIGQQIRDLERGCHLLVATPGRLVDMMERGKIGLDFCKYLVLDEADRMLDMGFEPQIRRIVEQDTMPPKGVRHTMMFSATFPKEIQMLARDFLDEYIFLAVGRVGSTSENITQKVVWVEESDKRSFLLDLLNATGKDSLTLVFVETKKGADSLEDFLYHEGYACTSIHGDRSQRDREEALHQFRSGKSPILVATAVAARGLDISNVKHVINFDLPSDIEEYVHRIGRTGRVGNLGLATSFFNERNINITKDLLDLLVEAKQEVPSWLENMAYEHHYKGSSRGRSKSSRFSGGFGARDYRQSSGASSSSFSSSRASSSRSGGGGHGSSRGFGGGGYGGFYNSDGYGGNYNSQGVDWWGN
UniProt Q15365: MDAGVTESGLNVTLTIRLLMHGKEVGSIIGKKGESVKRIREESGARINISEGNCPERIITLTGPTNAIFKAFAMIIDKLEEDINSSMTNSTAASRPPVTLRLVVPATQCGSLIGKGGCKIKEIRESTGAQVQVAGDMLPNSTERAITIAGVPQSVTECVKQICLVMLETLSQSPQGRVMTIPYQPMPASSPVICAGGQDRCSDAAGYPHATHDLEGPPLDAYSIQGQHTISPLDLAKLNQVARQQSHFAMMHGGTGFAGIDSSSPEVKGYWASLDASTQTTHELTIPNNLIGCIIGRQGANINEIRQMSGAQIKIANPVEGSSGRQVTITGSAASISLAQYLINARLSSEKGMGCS
UniProt P63104: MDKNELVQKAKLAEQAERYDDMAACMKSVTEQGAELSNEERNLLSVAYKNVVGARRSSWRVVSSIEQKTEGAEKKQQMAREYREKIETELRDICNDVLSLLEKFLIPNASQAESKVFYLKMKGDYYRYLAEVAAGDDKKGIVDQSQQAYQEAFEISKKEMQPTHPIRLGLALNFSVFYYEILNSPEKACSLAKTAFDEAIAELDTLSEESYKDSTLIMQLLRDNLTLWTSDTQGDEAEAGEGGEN
UniProt P36873: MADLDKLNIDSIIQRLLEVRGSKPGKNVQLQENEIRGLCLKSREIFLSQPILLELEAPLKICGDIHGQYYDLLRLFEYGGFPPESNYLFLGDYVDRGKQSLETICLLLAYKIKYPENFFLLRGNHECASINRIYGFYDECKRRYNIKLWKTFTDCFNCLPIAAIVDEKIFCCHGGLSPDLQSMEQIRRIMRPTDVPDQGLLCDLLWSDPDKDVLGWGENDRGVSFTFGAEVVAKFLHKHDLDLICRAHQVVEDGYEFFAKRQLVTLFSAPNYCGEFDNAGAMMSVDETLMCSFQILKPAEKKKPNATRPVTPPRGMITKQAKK
UniProt Q13263: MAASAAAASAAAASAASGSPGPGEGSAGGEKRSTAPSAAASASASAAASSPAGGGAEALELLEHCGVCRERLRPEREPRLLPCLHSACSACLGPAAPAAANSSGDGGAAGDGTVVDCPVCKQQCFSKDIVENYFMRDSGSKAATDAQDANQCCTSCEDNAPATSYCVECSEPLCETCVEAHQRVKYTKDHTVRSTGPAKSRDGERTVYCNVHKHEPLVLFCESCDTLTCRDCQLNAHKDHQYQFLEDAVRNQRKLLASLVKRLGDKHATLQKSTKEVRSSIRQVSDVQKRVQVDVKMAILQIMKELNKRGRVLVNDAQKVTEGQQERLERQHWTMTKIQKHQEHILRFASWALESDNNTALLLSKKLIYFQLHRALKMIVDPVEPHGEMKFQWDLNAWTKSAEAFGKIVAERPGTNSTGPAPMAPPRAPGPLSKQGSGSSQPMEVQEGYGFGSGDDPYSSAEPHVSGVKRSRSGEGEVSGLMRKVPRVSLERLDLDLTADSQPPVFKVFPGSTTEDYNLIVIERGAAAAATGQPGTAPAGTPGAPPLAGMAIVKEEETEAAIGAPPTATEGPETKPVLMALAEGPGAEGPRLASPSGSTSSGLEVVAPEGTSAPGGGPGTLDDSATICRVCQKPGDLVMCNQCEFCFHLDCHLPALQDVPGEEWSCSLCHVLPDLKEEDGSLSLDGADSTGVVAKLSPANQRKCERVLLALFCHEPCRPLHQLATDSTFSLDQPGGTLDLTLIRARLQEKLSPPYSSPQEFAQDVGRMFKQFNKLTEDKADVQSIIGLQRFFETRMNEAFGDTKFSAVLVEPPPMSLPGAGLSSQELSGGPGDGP
UniProt P06748: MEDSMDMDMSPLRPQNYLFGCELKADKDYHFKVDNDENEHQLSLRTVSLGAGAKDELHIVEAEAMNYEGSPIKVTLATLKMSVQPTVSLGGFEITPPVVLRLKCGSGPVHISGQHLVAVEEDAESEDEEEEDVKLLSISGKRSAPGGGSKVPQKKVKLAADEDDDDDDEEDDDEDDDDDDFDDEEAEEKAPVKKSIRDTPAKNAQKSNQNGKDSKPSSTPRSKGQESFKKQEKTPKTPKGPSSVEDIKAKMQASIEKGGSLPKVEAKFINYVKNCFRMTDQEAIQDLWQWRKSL
UniProt P67775: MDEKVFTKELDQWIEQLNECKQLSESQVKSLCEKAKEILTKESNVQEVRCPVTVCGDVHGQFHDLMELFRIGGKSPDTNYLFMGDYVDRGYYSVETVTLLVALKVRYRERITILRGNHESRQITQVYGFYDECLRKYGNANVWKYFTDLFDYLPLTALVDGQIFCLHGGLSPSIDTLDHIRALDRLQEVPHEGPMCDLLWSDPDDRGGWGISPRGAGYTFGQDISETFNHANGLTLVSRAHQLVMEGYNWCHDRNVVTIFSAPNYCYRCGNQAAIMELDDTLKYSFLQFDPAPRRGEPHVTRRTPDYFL
UniProt P62140: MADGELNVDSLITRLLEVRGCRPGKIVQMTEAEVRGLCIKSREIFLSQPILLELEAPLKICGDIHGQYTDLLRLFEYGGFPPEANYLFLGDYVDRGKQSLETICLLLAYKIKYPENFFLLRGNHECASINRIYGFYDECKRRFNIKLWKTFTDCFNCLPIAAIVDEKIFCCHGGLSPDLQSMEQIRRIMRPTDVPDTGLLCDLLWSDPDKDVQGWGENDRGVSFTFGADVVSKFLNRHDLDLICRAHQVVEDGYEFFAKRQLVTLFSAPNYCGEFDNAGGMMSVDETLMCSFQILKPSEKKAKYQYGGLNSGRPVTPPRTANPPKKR
UniProt Q99832: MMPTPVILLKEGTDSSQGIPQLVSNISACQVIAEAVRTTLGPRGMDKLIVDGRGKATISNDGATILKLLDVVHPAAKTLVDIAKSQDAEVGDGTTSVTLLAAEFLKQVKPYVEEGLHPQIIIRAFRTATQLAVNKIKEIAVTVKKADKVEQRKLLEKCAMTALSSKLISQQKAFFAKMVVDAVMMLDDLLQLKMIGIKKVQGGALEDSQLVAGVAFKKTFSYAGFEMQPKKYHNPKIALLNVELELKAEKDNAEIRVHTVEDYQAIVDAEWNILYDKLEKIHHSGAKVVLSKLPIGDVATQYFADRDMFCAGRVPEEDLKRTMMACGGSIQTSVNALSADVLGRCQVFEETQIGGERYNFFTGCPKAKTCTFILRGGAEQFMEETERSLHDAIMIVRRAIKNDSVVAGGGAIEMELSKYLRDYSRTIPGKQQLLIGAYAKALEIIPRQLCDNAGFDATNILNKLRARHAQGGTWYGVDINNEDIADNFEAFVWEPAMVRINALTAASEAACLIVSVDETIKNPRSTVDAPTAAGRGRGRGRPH
UniProt P19474: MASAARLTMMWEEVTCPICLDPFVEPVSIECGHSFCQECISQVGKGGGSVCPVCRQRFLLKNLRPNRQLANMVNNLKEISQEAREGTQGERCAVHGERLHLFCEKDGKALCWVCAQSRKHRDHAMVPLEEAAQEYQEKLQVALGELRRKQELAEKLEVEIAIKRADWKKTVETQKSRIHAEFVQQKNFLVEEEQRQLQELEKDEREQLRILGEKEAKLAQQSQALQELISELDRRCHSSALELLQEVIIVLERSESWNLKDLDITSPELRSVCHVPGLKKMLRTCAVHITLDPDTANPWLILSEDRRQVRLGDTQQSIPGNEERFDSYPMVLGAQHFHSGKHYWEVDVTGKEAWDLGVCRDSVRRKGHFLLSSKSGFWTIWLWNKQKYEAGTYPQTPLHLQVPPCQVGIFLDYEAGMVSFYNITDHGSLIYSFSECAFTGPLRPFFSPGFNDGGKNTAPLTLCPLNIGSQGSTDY
UniProt P62714: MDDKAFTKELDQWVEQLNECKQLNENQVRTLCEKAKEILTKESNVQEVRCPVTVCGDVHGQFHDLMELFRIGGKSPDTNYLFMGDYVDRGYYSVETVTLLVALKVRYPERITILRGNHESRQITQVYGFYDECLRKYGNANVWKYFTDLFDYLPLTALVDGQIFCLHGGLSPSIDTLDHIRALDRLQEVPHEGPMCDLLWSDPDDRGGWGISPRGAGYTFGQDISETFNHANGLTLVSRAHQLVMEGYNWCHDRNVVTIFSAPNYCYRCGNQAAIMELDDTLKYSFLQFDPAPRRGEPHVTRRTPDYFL

T1: TAK1 overexpressed from pCMV-TAK1 (UniProt O43318)
T1 sequence: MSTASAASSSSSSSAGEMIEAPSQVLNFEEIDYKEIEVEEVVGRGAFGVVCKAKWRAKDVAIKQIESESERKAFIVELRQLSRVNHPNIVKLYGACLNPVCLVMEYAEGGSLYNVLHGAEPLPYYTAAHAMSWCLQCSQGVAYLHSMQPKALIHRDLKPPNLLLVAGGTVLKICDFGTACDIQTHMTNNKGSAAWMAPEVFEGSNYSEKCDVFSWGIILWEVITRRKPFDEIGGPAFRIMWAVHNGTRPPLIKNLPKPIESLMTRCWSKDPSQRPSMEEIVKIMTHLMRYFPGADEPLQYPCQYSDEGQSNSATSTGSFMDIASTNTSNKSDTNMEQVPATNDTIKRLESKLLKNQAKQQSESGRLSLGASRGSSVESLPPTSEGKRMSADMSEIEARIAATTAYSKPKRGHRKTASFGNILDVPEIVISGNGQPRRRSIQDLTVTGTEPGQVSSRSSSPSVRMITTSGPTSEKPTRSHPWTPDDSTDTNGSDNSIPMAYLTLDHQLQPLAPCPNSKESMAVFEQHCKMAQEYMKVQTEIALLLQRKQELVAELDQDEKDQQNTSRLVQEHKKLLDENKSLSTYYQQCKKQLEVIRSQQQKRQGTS

T2: Transforming growth factor-β (TGFβ)-activated kinase 1 (TAK1), endogenous (human (endogenous in AGS)) (UniProt O43318)
T2 sequence: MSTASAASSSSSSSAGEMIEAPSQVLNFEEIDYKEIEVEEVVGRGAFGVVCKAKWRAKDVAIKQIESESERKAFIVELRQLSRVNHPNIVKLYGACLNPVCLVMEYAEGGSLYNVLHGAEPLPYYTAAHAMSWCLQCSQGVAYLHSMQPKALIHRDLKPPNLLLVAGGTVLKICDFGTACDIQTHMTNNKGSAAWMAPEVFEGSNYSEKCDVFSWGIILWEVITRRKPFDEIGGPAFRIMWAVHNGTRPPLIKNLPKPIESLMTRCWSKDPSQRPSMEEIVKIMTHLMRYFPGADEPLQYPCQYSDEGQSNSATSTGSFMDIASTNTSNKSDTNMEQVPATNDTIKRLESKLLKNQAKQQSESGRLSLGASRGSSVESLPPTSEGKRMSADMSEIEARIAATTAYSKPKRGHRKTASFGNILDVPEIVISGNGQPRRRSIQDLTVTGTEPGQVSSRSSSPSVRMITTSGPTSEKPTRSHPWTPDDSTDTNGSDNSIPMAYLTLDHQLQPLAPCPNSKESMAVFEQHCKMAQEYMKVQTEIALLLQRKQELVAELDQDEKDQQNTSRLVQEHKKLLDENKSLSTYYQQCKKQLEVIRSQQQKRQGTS


Key:
[1] = biological target: T1, TAK1 overexpressed from pCMV-TAK1; assay: affinity purification with mass spectrometry; overexpressed TAK1 immunoprecipitated from untreated, H. pylori-infected (20 and 45 min) and TAB1-co-expressing AGS cells, on-bead trypsin digestion, LC-MS/MS; isotype antibody IP as filter; proteins found in at least 2 experiments
[2] = biological target: T2, Transforming growth factor-β (TGFβ)-activated kinase 1 (TAK1), endogenous (human (endogenous in AGS)); assay: affinity purification with mass spectrometry; endogenous TAK1 immunoprecipitated from mock- or TAB1-transfected uninfected AGS cells, on-bead trypsin digestion, LC-MS/MS; isotype antibody IP as filter; proteins found in at least 2 experiments
[3] = biological target: T1, TAK1 overexpressed from pCMV-TAK1; assay: affinity purification with mass spectrometry; overexpressed TAK1 immunoprecipitated from untreated, H. pylori-infected (20 and 45 min) and TAB1-co-expressing AGS cells, on-bead trypsin digestion, LC-MS/MS; isotype antibody IP as filter; proteins found in at least 2 experiments; remark: listed apart in the source
[4] = biological target: T2, Transforming growth factor-β (TGFβ)-activated kinase 1 (TAK1), endogenous (human (endogenous in AGS)); assay: affinity purification with mass spectrometry; endogenous TAK1 immunoprecipitated from mock- or TAB1-transfected uninfected AGS cells, on-bead trypsin digestion, LC-MS/MS; isotype antibody IP as filter; proteins found in at least 2 experiments; remark: listed apart in the source

Molecule	binding [1]	binding [3]	also measured
PPP1CA, catalytic subunit of serine/threonine-protein phosphatase 1 (PP1) (from UniProt P62136 1-330) (enzyme)	binds	–	–
CCT8, subunit of the chaperoning T complex (CCT) (from UniProt P50990 1-548)	binds	–	–
EIF2S1 (from UniProt P05198 1-315)	binds	–	–
Asp-Glu-Ala-Asp (DEAD)-box helicase DDX3 (from UniProt O00571 1-662) (enzyme)	–	–	binding [2]: binds
poly(rC)-binding protein (PCBP)1 (from UniProt Q15365 1-356)	–	–	binding [2]: binds
CDC37 (protein, UniProt Q16543 1-378) MVDYSVWDHIEVSDDEDETHPNIDTASLFRWRHQARVERMEQFQKEKEELDRGCRECKRKVAECQRKLKELEVAEGGKAELERLQAEAQQLRKEERSWEQKLEEMRKKEKSMPWNVDTLSKDGFSKSMVNTKPEKTEEDSEEVREQKHKTFVEKYEKQIKHFGMLRRWDDSQKYLSDNVHLVCEETANYLVIWCIDLEVEEKCALMEQVAHQTIVMQFILELAKSLKVDPRACFRQFFTKIKTADRQYMEGFNDELEAFKERVRGRAKLRIEKAMKEYEEEERKKRLGPGGLDPVEVYESLPEELQKCFDVKDVQMLQDAISKMDPTDAKYHMQRCIDSGLWVPNSKASEAKEGEEAGPGDPLLEAVPKTGDEKDVSV	–	binds	–
SUMO-activating enzyme subunit 1 (SAE1) (enzyme, UniProt Q9UBE0 1-346) MVEKEEAGGGISEEEAAQYDRQIRLWGLEAQKRLRASRVLLVGLKGLGAEIAKNLILAGVKGLTMLDHEQVTPEDPGAQFLIRTGSVGRNRAEASLERAQNLNPMVDVKVDTEDIEKKPESFFTQFDAVCLTCCSRDVIVKVDQICHKNSIKFFTGDVFGYHGYTFANLGEHEFVEEKTKVAKVSQGVEDGPDTKRAKLDSSETTMVKKKVVFCPVKEALEVDWSSEKAKAALKRTTSDYFLLQVLLKFRTDKGRDPSSDTYEEDSELLLQIRNDVLDSLGISPDLLPEDFVRYCFSEMAPVCAVVGGILAQEIVKALSQRDPPHNNFFFFDGMKGNGIVECLGPK	–	binds	–
TAK1-binding protein TAB2 (protein, UniProt Q9NYJ8 1-693) MAQGSHQIDFQVLHDLRQKFPEVPEVVVSRCMLQNNNNLDACCAVLSQESTRYLYGEGDLNFSDDSGISGLRNHMTSLNLDLQSQNIYHHGREGSRMNGSRTLTHSISDGQLQGGQSNSELFQQEPQTAPAQVPQGFNVFGMSSSSGASNSAPHLGFHLGSKGTSSLSQQTPRFNPIMVTLAPNIQTGRNTPTSLHIHGVPPPVLNSPQGNSIYIRPYITTPGGTTRQTQQHSGWVSQFNPMNPQQVYQPSQPGPWTTCPASNPLSHTSSQQPNQQGHQTSHVYMPISSPTTSQPPTIHSSGSSQSSAHSQYNIQNISTGPRKNQIEIKLEPPQRNNSSKLRSSGPRTSSTSSSVNSQTLNRNQPTVYIAASPPNTDELMSRSQPKVYISANAATGDEQVMRNQPTLFISTNSGASAASRNMSGQVSMGPAFIHHHPPKSRAIGNNSATSPRVVVTQPNTKYTFKITVSPNKPPAVSPGVVSPTFELTNLLNHPDHYVETENIQHLTDPTLAHVDRISETRKLSMGSDDAAYTQALLVHQKARMERLQRELEIQKKKLDKLKSEVNEMENNLTRRRLKRSNSISQIPSLEEMQQLRSCNRQLQIDIDCLTKEIDLFQARGPHFNPSAIHNFYDNIGFVGPVPPKPKDQRSIIKTPKTQDTEDDEGAQWNCTACTFLNHPALIRCEQCEMPRHF	–	binds	binding [4]: binds
TAB1 overexpressed from pCMV-TAB1 (protein, UniProt Q15750 1-504) MAAQRRSLLQSEQQPSWTDDLPLCHLSGVGSASNRSYSADGKGTESHPPEDSWLKFRSENNCFLYGVFNGYDGNRVTNFVAQRLSAELLLGQLNAEHAEADVRRVLLQAFDVVERSFLESIDDALAEKASLQSQLPEGVPQHQLPPQYQKILERLKTLEREISGGAMAVVAVLLNNKLYVANVGTNRALLCKSTVDGLQVTQLNVDHTTENEDELFRLSQLGLDAGKIKQVGIICGQESTRRIGDYKVKYGYTDIDLLSAAKSKPIIAEPEIHGAQPLDGVTGFLVLMSEGLYKALEAAHGPGQANQEIAAMIDTEFAKQTSLDAVAQAVVDRVKRIHSDTFASGGERARFCPRHEDMTLLVRNFGYPLGEMSQPTPSPAPAAGGRVYPVSVPYSSAQSTSKTSVTLSLVMPSQGQMVNGAHSASTLDEATPTLTNQSPTLTLQSTNTHTQSSSSSSDGGLFRSRPAHSLPPGEDGRVEPYVDFAEFYRLWSVDHGEQSVVTAP	–	binds	binding [4]: binds

More lines, main results first:

binding [1]	binding [3]	Molecule	also measured
binds	–	YWHAZ (14-3-3-zeta) (from UniProt P63104 1-245)	–
binds	–	PPP1CC, catalytic subunit of serine/threonine-protein phosphatase 1 (PP1) (from UniProt P36873 1-323) (enzyme)	–
binds	–	Tripartite motif 28 (TRIM28) (from UniProt Q13263 1-835)	binding [2]: binds
binds	–	NPM1 (from UniProt P06748 1-294)	–
binds	–	PPP2A, catalytic subunit of serine/threonine-protein phosphatase 2A (PP2A) (from UniProt P67775 1-309) (enzyme)	–
binds	–	PPP1CB, catalytic subunit of serine/threonine-protein phosphatase 1 (PP1) (from UniProt P62140 1-327) (enzyme)	–
binds	–	CCT7, subunit of the chaperoning T complex (CCT) (from UniProt Q99832 1-543)	–
binds	–	Tripartite motif (TRIM)21 (from UniProt P19474 1-475)	binding [2]: binds
binds	–	PPP2B, catalytic subunit of serine/threonine-protein phosphatase 2A (PP2A) (from UniProt P62714 1-309) (enzyme)	–
–	binds	TAK1-binding protein TAB3 (protein, UniProt Q8N5C8 1-712) MAQSSPQLDIQVLHDLRQRFPEIPEGVVSQCMLQNNNNLEACCRALSQESSKYLYMEYHSPDDNRMNRNRLLHINLGIHSPSSYHPGDGAQLNGGRTLVHSSSDGHIDPQHAAGKQLICLVQEPHSAPAVVAATPNYNPFFMNEQNRSAATPPSQPPQQPSSMQTGMNPSAMQGPSPPPPPPSYMHIPRYSTNPITVTVSQNLPSGQTVPRALQILPQIPSNLYGSPGSIYIRQTSQSSSGRQTPQSTPWQSSPQGPVPHYSQRPLPVYPHQQNYQPSQYSPKQQQIPQSAYHSPPPSQCPSPFSSPQHQVQPSQLGHIFMPPSPSTTPPHPYQQGPPSYQKQGSHSVAYLPYTASSLSKGSMKKIEITVEPSQRPGTAINRSPSPISNQPSPRNQHSLYTATTPPSSSPSRGISSQPKPPFSVNPVYITYTQPTGPSCTPSPSPRVIPNPTTVFKITVGRATTENLLNLVDQEERSAAPEPIQPISVIPGSGGEKGSHKYQRSSSSGSDDYAYTQALLLHQRARMERLAKQLKLEKEELERLKSEVNGMEHDLMQRRLRRVSCTTAIPTPEEMTRLRSMNRQLQINVDCTLKEVDLLQSRGNFDPKAMNNFYDNIEPGPVVPPKPSKKDSSDPCTIERKARRISVTSKVQADIHDTQAAAADEHRTGSTQSPRTQPRDEDYEGAPWNCDSCTFLNHPALNRCEQCEMPRYT	binding [4]: binds
–	binds	TAK1-binding protein TAB1, endogenous (protein, UniProt Q15750 1-504) MAAQRRSLLQSEQQPSWTDDLPLCHLSGVGSASNRSYSADGKGTESHPPEDSWLKFRSENNCFLYGVFNGYDGNRVTNFVAQRLSAELLLGQLNAEHAEADVRRVLLQAFDVVERSFLESIDDALAEKASLQSQLPEGVPQHQLPPQYQKILERLKTLEREISGGAMAVVAVLLNNKLYVANVGTNRALLCKSTVDGLQVTQLNVDHTTENEDELFRLSQLGLDAGKIKQVGIICGQESTRRIGDYKVKYGYTDIDLLSAAKSKPIIAEPEIHGAQPLDGVTGFLVLMSEGLYKALEAAHGPGQANQEIAAMIDTEFAKQTSLDAVAQAVVDRVKRIHSDTFASGGERARFCPRHEDMTLLVRNFGYPLGEMSQPTPSPAPAAGGRVYPVSVPYSSAQSTSKTSVTLSLVMPSQGQMVNGAHSASTLDEATPTLTNQSPTLTLQSTNTHTQSSSSSSDGGLFRSRPAHSLPPGEDGRVEPYVDFAEFYRLWSVDHGEQSVVTAP	binding [4]: binds
